From the supplement of paper PMC11732987, “Enantioselective OTUD7B fragment discovery through chemoproteomics screening and high-throughput optimisation” (Communications Chemistry, 2025)
The list shows a part of the results. The data scatter; read single values as rough.

Chains of the proteins cited; added tags and fusions are not shown. Lines headed by an entry give the natural chain unless they say otherwise; changes in a name come on top. Residues count along the entry.
UniProt Q9Y6X3: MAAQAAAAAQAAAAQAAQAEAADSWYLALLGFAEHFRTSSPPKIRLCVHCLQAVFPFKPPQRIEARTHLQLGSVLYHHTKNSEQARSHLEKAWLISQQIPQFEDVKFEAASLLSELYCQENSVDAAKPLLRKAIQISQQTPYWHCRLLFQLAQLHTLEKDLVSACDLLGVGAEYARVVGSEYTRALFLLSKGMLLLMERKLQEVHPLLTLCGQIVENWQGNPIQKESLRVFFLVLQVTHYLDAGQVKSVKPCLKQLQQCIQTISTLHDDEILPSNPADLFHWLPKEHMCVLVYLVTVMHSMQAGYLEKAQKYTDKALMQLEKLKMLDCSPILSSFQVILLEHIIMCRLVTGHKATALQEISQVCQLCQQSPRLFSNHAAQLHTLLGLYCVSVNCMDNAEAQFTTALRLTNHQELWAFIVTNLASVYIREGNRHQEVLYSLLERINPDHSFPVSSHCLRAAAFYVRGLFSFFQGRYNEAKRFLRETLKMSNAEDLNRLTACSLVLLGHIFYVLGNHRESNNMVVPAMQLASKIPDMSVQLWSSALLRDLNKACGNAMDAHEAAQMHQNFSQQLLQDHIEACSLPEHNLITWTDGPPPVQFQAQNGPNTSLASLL
UniProt Q9Y2U5: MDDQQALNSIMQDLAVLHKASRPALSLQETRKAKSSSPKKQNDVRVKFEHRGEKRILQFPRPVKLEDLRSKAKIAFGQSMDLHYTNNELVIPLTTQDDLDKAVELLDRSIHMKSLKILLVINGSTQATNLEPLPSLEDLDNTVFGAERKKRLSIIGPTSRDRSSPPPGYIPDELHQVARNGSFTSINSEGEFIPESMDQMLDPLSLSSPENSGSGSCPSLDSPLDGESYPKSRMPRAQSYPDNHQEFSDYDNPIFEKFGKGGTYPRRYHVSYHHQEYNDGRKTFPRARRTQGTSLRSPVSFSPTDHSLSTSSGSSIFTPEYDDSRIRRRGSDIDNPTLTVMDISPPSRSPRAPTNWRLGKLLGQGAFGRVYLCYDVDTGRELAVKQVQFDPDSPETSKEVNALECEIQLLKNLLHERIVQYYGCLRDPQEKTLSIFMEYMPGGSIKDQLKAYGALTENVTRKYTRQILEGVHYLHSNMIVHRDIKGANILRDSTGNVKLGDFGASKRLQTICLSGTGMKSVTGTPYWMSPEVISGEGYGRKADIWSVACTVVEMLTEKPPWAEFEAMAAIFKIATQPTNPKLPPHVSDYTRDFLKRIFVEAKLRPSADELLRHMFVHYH
UniProt P49137, 213-239: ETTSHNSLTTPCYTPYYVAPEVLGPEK
UniProt P25205: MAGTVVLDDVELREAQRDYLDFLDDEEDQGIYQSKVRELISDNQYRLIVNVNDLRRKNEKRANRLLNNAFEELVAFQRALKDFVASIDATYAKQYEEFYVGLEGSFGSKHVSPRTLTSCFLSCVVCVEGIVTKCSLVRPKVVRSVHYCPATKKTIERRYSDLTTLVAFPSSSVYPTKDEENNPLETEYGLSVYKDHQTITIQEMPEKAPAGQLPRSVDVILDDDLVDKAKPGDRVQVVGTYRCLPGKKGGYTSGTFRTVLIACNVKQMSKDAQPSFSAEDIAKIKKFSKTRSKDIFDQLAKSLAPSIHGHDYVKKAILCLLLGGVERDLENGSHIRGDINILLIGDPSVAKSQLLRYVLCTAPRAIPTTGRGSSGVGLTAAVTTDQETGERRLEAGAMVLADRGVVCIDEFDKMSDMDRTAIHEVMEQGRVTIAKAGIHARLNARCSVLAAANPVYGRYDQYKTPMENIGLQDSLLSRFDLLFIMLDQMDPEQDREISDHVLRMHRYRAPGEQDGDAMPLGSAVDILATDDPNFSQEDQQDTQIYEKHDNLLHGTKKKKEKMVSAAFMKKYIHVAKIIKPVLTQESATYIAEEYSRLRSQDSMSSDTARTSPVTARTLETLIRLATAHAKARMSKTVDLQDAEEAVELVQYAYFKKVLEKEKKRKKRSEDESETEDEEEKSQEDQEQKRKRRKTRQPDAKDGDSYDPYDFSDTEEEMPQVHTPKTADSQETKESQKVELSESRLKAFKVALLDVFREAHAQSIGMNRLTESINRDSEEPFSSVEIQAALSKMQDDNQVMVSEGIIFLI
UniProt O95372: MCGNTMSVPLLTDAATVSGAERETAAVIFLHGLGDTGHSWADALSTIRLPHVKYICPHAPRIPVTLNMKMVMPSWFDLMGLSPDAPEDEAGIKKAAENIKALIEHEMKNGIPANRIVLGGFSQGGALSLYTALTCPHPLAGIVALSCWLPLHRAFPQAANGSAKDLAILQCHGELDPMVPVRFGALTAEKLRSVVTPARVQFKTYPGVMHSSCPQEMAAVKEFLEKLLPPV
UniProt Q6UWE0: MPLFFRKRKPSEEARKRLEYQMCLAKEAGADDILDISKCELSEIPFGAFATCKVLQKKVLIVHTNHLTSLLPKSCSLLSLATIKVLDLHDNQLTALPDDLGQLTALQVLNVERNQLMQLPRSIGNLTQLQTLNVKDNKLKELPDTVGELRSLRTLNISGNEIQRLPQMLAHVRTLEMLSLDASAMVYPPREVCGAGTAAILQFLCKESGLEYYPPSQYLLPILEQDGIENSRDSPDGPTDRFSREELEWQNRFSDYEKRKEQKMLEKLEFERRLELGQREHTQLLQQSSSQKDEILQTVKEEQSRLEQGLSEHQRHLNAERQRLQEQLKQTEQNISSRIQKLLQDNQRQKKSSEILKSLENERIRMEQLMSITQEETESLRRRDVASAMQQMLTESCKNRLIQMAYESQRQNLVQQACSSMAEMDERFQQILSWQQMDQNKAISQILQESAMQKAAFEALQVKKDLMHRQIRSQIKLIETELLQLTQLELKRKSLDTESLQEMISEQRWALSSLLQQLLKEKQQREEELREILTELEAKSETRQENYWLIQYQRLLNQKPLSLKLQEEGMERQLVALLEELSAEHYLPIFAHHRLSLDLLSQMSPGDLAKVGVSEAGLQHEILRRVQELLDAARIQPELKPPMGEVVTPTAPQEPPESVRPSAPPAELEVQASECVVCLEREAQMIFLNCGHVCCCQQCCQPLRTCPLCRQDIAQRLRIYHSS
UniProt Q9P0L2: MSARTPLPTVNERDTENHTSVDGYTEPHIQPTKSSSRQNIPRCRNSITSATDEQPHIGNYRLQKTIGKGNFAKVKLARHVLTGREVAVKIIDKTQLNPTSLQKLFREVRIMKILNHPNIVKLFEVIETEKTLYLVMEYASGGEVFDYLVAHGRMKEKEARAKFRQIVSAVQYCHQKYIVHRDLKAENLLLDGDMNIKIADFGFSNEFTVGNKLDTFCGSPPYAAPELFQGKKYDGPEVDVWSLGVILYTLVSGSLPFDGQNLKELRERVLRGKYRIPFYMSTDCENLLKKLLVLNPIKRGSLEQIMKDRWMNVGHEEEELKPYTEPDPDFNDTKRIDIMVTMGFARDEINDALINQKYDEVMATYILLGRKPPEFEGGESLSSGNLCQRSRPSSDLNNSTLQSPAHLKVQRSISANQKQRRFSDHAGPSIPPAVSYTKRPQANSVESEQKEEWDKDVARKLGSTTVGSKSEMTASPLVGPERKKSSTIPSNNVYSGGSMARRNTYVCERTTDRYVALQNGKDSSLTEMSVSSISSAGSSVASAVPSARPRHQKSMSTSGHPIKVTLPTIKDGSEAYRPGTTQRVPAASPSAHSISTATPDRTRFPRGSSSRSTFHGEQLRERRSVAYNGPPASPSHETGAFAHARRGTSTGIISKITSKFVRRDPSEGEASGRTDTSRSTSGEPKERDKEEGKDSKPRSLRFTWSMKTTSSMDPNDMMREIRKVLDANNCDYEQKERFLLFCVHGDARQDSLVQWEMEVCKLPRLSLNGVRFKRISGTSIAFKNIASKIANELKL
UniProt Q15048, 146-168: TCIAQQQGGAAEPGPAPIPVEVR
UniProt Q9UFC0, 248-272: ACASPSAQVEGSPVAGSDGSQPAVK
UniProt Q9BRK4: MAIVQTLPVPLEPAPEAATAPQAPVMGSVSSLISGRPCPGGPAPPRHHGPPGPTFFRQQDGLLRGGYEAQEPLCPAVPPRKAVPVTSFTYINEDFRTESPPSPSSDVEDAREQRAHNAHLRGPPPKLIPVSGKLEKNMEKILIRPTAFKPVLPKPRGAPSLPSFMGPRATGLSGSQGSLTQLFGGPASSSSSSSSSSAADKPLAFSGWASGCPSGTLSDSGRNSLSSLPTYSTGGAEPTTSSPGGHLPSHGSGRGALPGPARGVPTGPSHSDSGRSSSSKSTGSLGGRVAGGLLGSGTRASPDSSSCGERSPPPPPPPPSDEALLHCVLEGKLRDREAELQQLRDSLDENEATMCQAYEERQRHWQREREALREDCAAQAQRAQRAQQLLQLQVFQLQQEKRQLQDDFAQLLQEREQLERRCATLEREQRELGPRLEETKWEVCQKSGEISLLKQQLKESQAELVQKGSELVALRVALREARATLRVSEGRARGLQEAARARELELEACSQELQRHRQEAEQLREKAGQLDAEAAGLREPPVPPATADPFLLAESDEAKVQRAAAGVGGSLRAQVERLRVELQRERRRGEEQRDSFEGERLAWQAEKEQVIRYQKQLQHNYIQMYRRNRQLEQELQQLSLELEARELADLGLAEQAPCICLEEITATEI
UniProt O60318: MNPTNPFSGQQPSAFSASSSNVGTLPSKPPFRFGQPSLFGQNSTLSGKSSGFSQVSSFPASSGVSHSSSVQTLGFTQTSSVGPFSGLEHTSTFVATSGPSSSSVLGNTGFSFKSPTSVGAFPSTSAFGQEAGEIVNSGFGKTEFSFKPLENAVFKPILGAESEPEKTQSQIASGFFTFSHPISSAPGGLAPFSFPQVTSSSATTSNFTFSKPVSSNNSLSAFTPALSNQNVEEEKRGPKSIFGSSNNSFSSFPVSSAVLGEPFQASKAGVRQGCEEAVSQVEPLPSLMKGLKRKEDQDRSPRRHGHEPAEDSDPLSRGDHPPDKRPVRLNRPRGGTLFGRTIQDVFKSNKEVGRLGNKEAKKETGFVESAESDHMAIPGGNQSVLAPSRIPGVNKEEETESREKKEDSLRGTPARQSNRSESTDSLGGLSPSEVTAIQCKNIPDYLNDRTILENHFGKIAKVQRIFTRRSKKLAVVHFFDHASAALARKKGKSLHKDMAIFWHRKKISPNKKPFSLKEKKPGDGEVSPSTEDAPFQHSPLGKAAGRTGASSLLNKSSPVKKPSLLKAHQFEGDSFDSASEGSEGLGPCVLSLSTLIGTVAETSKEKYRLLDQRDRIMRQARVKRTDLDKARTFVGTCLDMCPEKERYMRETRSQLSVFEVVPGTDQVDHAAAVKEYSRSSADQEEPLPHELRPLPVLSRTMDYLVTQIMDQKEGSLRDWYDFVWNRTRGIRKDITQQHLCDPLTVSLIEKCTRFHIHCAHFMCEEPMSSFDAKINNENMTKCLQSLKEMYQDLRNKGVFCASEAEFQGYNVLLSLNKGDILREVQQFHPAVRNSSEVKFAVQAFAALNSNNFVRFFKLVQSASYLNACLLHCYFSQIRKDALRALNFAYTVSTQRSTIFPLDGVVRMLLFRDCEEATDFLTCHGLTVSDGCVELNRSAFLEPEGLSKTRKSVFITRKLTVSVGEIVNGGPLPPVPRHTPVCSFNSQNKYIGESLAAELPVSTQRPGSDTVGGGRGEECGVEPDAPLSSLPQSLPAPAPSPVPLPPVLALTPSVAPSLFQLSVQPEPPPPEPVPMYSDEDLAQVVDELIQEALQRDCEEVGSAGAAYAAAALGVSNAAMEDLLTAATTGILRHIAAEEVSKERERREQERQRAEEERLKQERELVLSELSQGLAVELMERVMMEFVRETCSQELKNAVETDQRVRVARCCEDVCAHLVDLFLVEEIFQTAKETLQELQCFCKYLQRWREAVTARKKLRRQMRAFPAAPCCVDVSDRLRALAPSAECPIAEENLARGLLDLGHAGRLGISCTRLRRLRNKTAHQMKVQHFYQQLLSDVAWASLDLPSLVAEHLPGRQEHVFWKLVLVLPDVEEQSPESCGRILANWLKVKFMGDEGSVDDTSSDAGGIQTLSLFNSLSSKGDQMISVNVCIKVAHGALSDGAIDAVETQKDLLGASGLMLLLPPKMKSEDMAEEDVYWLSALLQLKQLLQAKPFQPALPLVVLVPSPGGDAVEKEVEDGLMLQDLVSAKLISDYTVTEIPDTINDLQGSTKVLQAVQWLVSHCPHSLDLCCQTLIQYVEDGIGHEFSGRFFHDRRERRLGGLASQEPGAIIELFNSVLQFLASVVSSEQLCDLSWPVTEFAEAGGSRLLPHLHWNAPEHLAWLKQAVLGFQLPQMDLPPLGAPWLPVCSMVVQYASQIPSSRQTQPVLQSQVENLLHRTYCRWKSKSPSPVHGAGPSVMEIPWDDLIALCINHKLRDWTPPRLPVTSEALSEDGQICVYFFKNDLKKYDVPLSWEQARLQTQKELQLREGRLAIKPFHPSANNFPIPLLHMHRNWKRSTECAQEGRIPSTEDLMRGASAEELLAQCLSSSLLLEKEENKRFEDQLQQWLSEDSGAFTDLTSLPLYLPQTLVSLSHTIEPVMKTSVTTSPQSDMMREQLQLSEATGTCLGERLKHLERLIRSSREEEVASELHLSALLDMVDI

Compound: ClCC(=O)N[C@@H]1CCCc2ccccc12
Assay: log2 mean competition ratio of IA-DTB cysteine labelling (DMSO/compound) (log2 ratio); higher = stronger cysteine engagement by compound
Details: 50 µM; treatment time: 4 h; cell line lysate: HEK293T
Experimental: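 IA-DTB competitive cysteine chemoproteomics in HEK293T RIPA lysate. Lysates were treated with compound 29 or 30 at 50 or 200 µM for 4 h, then IA-DTB (500 µM, 1 h), trypsin-digested, NeutrAvidin-enriched and analysed by diaPASEF. Competition ratio = intensity DMSO / intensity compound (n=4 treated, n=64 DMSO); binding: mean log2 CR ≥ 1 and p ≤ 0.05 plus QC filters. Target is the cysteine site.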

Target	log2 mean competition ratio
MAU2 C165 (UniProt Q9Y6X3)	0.606
MAP1B C2041 (UniProt P46821)	-0.334
LSM14B C80 (UniProt Q9BX40)	-0.188
MARCHF5 C33 (UniProt Q9NX47)	-0.155
MAP3K2 C373 (UniProt Q9Y2U5)	-0.121
MAPKAPK2 C224 (UniProt P49137)	-0.13
MAP7D1 C361 (UniProt Q3KQU3)	0.241
MCM3 C134 (UniProt P25205)	0.426
LZTR1 C427 (UniProt Q8N653)	0.175
MBTPS2 C371 (UniProt O43462)	0.115
MARVELD2 C395 (UniProt Q8N4S9)	0.0139
LYPLA2 C171 (UniProt O95372)	-0.328
MCC C174 (UniProt P23508)	-0.114
LTN1 C498 (UniProt O94822)	-0.202
MACF1 C5346	-0.00108
MARS1 C309	-0.322
LRSAM1 C418 (UniProt Q6UWE0)	-0.227
MCM4 C509 (UniProt P33991)	-0.133
MAPK3 C178	0.393
MARK1 C507 (UniProt Q9P0L2)	-0.16
LRRC14 C147 (UniProt Q15048)	-0.389
LRRC1 C432	-0.0377
MCM6 C180 (UniProt Q14566)	-0.0482
LRWD1 C249 (UniProt Q9UFC0)	-0.0567
LZTS2 C444 (UniProt Q9BRK4)	0.0905
MCM3AP C1309 (UniProt O60318)	-0.0179
LRRC8D C218 (UniProt Q7L1W4)	0.13
LZTS2 C74 (UniProt Q9BRK4)	0.452

Taken from the listing (5 entries):
Target	log2 mean competition ratio
LRSAM1 C418 (UniProt Q6UWE0)	-0.227
MCM4 C509 (UniProt P33991)	-0.133
MAPK3 C178	0.393
MARK1 C507 (UniProt Q9P0L2)	-0.16
LRRC14 C147 (UniProt Q15048)	-0.389
